Measured values published in PubChem BioAssay AID1347426 (Functional Genomics Laboratory (NCATS/FGL), 2020).
Hit rate of the full screen: of about 31,000 sequences, about 1,400 (4.5%) were called active.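 How the source made its calls: active means median seed-adjusted z-score above 1 or below -1; inactive means the rest.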 Some of the results follow.

Assay: Novel Modifiers of Survival Motor Neuron (SMN) Protein: Gene Identification via Genome-wide siRNA Screen;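 further: luminescence tracks full-length SMN protein made from the SMN2 reporter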
Conditions: HEK293T SMN2-luciferase reporter, siRNA knockdown, 72 h; actives lie on both sides
Outline: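 siRNA screen, 10418 genes ×3 siRNAs; 1 pmol/well, lipid reverse transfection into HEK293T SMN2-luc reporter line. 72 h, 37 °C, 5% CO2; ONE-Glo readout. Data: neg-ctrl normalized, log10, MAD; hit = MAD >1.0 or < -1.0.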
In the case of GGGUUAGUGGAGACCUUUATT against ATPAF1, the median seed-adjusted z-score is reported as inactive: 0.393.
For CAAAAUCGAAUGAAGCUAATT against ERC1, the median seed-adjusted z-score was inactive: 0.415.
For CAACCAGAGCGUGAAGAAATT against SNRPN, the median seed-adjusted z-score was inactive: -0.571.
For CCAGGACUCAGAUUCCUCATT against CPEB1, the median seed-adjusted z-score was inactive: -0.349.
In the case of AGCUCUUUGGAUUCACUGATT against DDX11, the median seed-adjusted z-score is reported as inactive: 0.
In the case of GCUAUUGCCCGGUAAGAAATT against ACPL2, the median seed-adjusted z-score is reported as inactive: 0.0392.
In the case of GGAUGUAACAUACUCCUAUTT against ODF1, the median seed-adjusted z-score is reported as inactive: 0.912.
In the case of AGUCUGUAGUGUUCAUCUATT against TWF2, the median seed-adjusted z-score is reported as inactive: 0.303.
With GGAACGUACUGGGACAACUTT against TINAGL1 the median seed-adjusted z-score was inactive: -0.059.
In the case of CCGGCUUCGUUUCAUGAAATT against CD8B, the median seed-adjusted z-score is reported as inactive: 0.174.
With CCAUAGACCUCAAAAACGATT against TRIM25 the median seed-adjusted z-score was inactive: 0.859.
For CCUUCGUAGUGAUCUCAUUTT against BAZ1B, the median seed-adjusted z-score was inactive: 0.00593.
With GCUGUGCCUUAUAACCGAATT against LRRK2 the median seed-adjusted z-score was inactive: -0.671.
For AGGUCUGGACGACAACUAUTT against MST1, the median seed-adjusted z-score was active: -1.47.
In the case of GGAAUGACAAGGUACGUUUTT against TXK, the median seed-adjusted z-score is reported as inactive: -0.109.
In the case of ACCGCUUCAUGUCUGCGUATT against SF3A2, the median seed-adjusted z-score is reported as active: -1.7.
With CCAUCUCAUUGUCUAAAUATT against PTGIR the median seed-adjusted z-score was inactive: -0.0806.
With CGGGAUGAACGGAUUGAAATT against COL18A1 the median seed-adjusted z-score was inactive: -0.441.
For GAAUAAAAACGACCUCUUUTT against LZTR1, the median seed-adjusted z-score was inactive: 0.293.
With GAGACAGAAACAAACCUUUTT against FKBP1B the median seed-adjusted z-score was inactive: -0.561.
In the case of CACUCUGUCUAGAUACUCATT against LSM11, the median seed-adjusted z-score is reported as inactive: -0.873.
With GCCCUUACCAUAUUGGUCATT against 6-Mar the median seed-adjusted z-score was inactive: -0.483.
With CCACCCUGGUAGAUGAACATT against PGA5 the median seed-adjusted z-score was inactive: -0.149.
In the case of GGAACAUUUUCUUCGCAGATT against IREB2, the median seed-adjusted z-score is reported as inactive: 0.
With CACUAACAGUAGCGAAGGATT against HOXC8 the median seed-adjusted z-score was inactive: -0.0285.
With GGAUGUACGUGAUAUGUAATT against SENP8 the median seed-adjusted z-score was inactive: 0.
For UCAUAGAAAUUACACCCAATT against THBD, the median seed-adjusted z-score was inactive: -0.16.
With CCGCUUCCCUCAAGAGUAATT against RPL4 the median seed-adjusted z-score was inactive: 0.573.
In the case of GAAUUCGUGUUCAUACUUUTT against SEC24A, the median seed-adjusted z-score is reported as inactive: 0.038.
With GGUAUUAUCAAAACCAGUATT against DDX19A the median seed-adjusted z-score was inactive: 0.183.
With GGUUGAUCGAUGUCAGUCATT against RIOK3 the median seed-adjusted z-score was inactive: 0.0267.
In the case of CAGACCUACUUAGAACAGATT against PARP3, the median seed-adjusted z-score is reported as inactive: -0.0383.
For GGAUCCCUAUGUUCGGAAATT against AP2B1, the median seed-adjusted z-score was inactive: -0.214.
For CGAGGAUUUCGGUCAACAATT against B3GALT2, the median seed-adjusted z-score was inactive: 0.031.
In the case of GGACGGCUGCAAUCAAUGATT against IGF2R, the median seed-adjusted z-score is reported as inactive: 0.274.
With CGCCGACUCUAUUCAUGCATT against RAB22A the median seed-adjusted z-score was inactive: 0.321.
In the case of CCACCGCUCUUUAACAUGATT against TAOK2, the median seed-adjusted z-score is reported as inactive: 0.28.
With CAAAUGGAGUGGACCUGAATT against CPN1 the median seed-adjusted z-score was inactive: 0.17.
In the case of GCAACACCUCUGAUCCUGATT against MTMR4, the median seed-adjusted z-score is reported as inactive: -0.735.
For GAAAGAGCAUAAGGACGAATT against HOXA7, the median seed-adjusted z-score was inactive: -0.129.
For GGUACUUUGUGGUUAGUCUTT against MLSTD2, the median seed-adjusted z-score was inactive: -0.294.
For GAUAUGACUCAUCCAUUAATT against PLCZ1, the median seed-adjusted z-score was inactive: 0.
With AGAAAGGGCUGACAGAUGATT against PEX14 the median seed-adjusted z-score was inactive: 0.844.
In the case of CUUUAGAAGUUAUCAGGAATT against CAMK2N1, the median seed-adjusted z-score is reported as inactive: 0.
In the case of CCCUCGUGGUGUUUGCUGUTT against SLC6A17, the median seed-adjusted z-score is reported as inactive: -0.41.
In the case of GCAAUACACCUACCCAUAUTT against ARIH2, the median seed-adjusted z-score is reported as inactive: 0.0449.
In the case of GGAAAUACCAGGAACAAGATT against RRAS, the median seed-adjusted z-score is reported as inactive: -0.102.
For AAUUCGCACUGGAGAGAAATT against ZNF43, the median seed-adjusted z-score was inactive: 0.29.
For GGAAGUUCGUAGUUUAGAATT against CDON, the median seed-adjusted z-score was inactive: 0.777.
With GAGUCUACAGUUAUACCAATT against PRKAA1 the median seed-adjusted z-score was inactive: 0.0423.
In the case of GAACGAUAUUGAACAGCUUTT against CCRK, the median seed-adjusted z-score is reported as inactive: -0.47.
In the case of CCUGGAGAGUUACUUUGAATT against CCL23, the median seed-adjusted z-score is reported as inactive: -0.285.
With GGAAAUUGAUAGCAUACUATT against MXRA5 the median seed-adjusted z-score was inactive: 0.104.
For GAACCCACCUAUUGCCUUUTT against ING4, the median seed-adjusted z-score was inactive: -0.152.
In the case of CCUACAAGAUGUGCCCUAUTT against CSDC2, the median seed-adjusted z-score is reported as inactive: -0.321.
For GAUUUGCACUCAGACAGAUTT against HIPK1, the median seed-adjusted z-score was inactive: 0.69.
In the case of GCAUGUCUCUAAUAUUCCUTT against RBM9, the median seed-adjusted z-score is reported as inactive: 0.895.
With GACCAGCAAUGCCUACGUATT against FLRT1 the median seed-adjusted z-score was inactive: -0.00451.
With ACGGCAAGGUGUUCGAUGUTT against PGRMC1 the median seed-adjusted z-score was inactive: 0.124.
In the case of GAGGCUCAGUGUGGACAAATT against LMAN1, the median seed-adjusted z-score is reported as inactive: -0.118.
With UGAAAUACUUCAUACAUUATT against MORF4L1 the median seed-adjusted z-score was inactive: 0.225.
For GACUUUGAGUCUAACGUGATT against ST3GAL1, the median seed-adjusted z-score was inactive: 0.255.
With GCUCAAGAAGAGAUCUAUATT against GNL2 the median seed-adjusted z-score was inactive: 0.739.
With GAUUUACCCAAAUCACUCATT against G6PC2 the median seed-adjusted z-score was inactive: -0.0362.
With GGAUGCUUCGGAUGAGUUUTT against AK7 the median seed-adjusted z-score was inactive: -0.702.
With GAGUCGCUUUAGCUCCGAATT against XPNPEP2 the median seed-adjusted z-score was inactive: -0.158.
For GAGUGAGCCUUUAAAUCAUTT against ZNF652, the median seed-adjusted z-score was inactive: 0.
With GCCUUGCGAAGUUUCAAGATT against STAT4 the median seed-adjusted z-score was inactive: 0.734.
With GAAUCUCAAUUCCUUCUUUTT against RAPGEF3 the median seed-adjusted z-score was inactive: -0.481.
For AGAUCAAGGUUCCGACGCATT against ABHD6, the median seed-adjusted z-score was inactive: 0.
With GGAUCGAUUAUAACCGCUUTT against TYW1 the median seed-adjusted z-score was inactive: 0.201.
For GCCUAUUUAUAUCCUGGUATT against GPR84, the median seed-adjusted z-score was inactive: 0.285.
With GUACAUCCAGAUGAGCAUATT against TMEM147 the median seed-adjusted z-score was inactive: 0.233.
For CUCUGUACUUGAUAUUUCATT against MS4A2, the median seed-adjusted z-score was inactive: 0.155.
With GCAUUCCAGAGGAUCAUGATT against PDE12 the median seed-adjusted z-score was inactive: 0.422.
With AGGCUGUGAUUAAGAGCCATT against LDB3 the median seed-adjusted z-score was inactive: 0.
With GCAUCAAAACUUAAUCAGATT against ILKAP the median seed-adjusted z-score was inactive: 0.
With UUAUCAUCGUCCAAGUUUATT against CCL25 the median seed-adjusted z-score was inactive: 0.0698.
For GCAGUAAUAUAGUUCCGGUTT against IL18R1, the median seed-adjusted z-score was inactive: -0.206.
In the case of GGUGGUCCAUGAAAAAGCATT against SOD1, the median seed-adjusted z-score is reported as inactive: -0.8.
In the case of GGAGGAUCGUGAAUGACGATT against DPYSL4, the median seed-adjusted z-score is reported as inactive: 0.71.
For GAACAGCCUCGAUGUCAAATT against TMPRSS4, the median seed-adjusted z-score was inactive: -0.54.
For CAUUCACGAUCUUCCCGUATT against MYO16, the median seed-adjusted z-score was inactive: -0.072.
In the case of GAGAUGAACGUGUAAAGAATT against CIR, the median seed-adjusted z-score is reported as inactive: -0.197.
With CAUGGGAUCGAGUACAUUUTT against CPA5 the median seed-adjusted z-score was inactive: 0.141.
With GCGAAAUGAUAACUUCUAATT against XRN1 the median seed-adjusted z-score was inactive: 0.522.
For GGAGCUCGGUGAAUUCAAGTT against LARP6, the median seed-adjusted z-score was inactive: 0.0335.
In the case of GGUUUUCUUAUGACACUUUTT against RNF114, the median seed-adjusted z-score is reported as inactive: 0.452.
For GAAUUGGACAUUUCGGAUATT against NEK10, the median seed-adjusted z-score was inactive: -0.0464.
With GUACCCAGCUACAACAGAATT against WHSC1L1 the median seed-adjusted z-score was inactive: -0.283.
In the case of CCGUUGUAAUGAAUGUAAATT against ZNF221, the median seed-adjusted z-score is reported as inactive: -0.536.
In the case of AGGCUCUACUUAGAAGACATT against VIPR2, the median seed-adjusted z-score is reported as inactive: 0.706.
With GCUCUGGUAUUAACCUGGATT against RAMP1 the median seed-adjusted z-score was inactive: -0.031.
In the case of GGAAGAUUAUUACAGUCGATT against RERE, the median seed-adjusted z-score is reported as inactive: 0.129.
With CACGACAAGUGGUACAAGATT against GRIN3B the median seed-adjusted z-score was inactive: 0.39.
For AGGGUUACUUUGUCCAGAATT against GUSB, the median seed-adjusted z-score was inactive: -0.542.
In the case of GGUCACACGUUACAUGCUATT against CNTNAP1, the median seed-adjusted z-score is reported as inactive: 0.176.
For GGCUCAACAUUUCAGAUGUTT against PCDHGC5, the median seed-adjusted z-score was inactive: -0.0264.
With CCUAGUGUCUAUCCGUAUATT against ZBTB38 the median seed-adjusted z-score was inactive: 0.448.
With CUUCAGCAGUUGUUCAGCATT against CHSY3 the median seed-adjusted z-score was inactive: -0.113.
For GCAAAACCGAGAAAAACGATT against HSD11B1L, the median seed-adjusted z-score was inactive: -0.00448.
For CAGGAAGAAUUGAACUUGUTT against CCL23, the median seed-adjusted z-score was inactive: -0.285.
With CAUUGAAGGGUUCGAAAUATT against MTM1 the median seed-adjusted z-score was inactive: 0.406.
With GGAGUCAAGUGAAGCAGAATT against L3MBTL2 the median seed-adjusted z-score was inactive: -0.312.
With GGGUAACUGUUGAUAACCATT against POGK the median seed-adjusted z-score was inactive: 0.938.
In the case of GCAAUAAGAGAGAUCAGUATT against PDSS1, the median seed-adjusted z-score is reported as inactive: -0.287.
With CGGUGCCUACAAUGCCUUUTT against EFEMP2 the median seed-adjusted z-score was inactive: -0.143.
In the case of AGACCAAGAUGACGAUGAATT against TRIM52, the median seed-adjusted z-score is reported as inactive: 0.00966.
